Results as given in PMC9932112.
Results are given in words; binding and its absence hold for the method and conditions named. In cells and extracts the contact can be indirect. Some entries that bind do so weakly or less than the wild type. Tags and fused reporters may be left off the sequences shown.

Key:
[1] = biological target: T1, O-linked β-N-acetylglucosamine (O-GlcNAc) transferase (OGT), endogenous (human (endogenous in HeLa)) (UniProt O15294); assay: co-IP; endogenous proteins; cell extracts immunoprecipitated with anti-OGT antibodies, immunoblotted with anti-PLK1 antibodies
T1 sequence: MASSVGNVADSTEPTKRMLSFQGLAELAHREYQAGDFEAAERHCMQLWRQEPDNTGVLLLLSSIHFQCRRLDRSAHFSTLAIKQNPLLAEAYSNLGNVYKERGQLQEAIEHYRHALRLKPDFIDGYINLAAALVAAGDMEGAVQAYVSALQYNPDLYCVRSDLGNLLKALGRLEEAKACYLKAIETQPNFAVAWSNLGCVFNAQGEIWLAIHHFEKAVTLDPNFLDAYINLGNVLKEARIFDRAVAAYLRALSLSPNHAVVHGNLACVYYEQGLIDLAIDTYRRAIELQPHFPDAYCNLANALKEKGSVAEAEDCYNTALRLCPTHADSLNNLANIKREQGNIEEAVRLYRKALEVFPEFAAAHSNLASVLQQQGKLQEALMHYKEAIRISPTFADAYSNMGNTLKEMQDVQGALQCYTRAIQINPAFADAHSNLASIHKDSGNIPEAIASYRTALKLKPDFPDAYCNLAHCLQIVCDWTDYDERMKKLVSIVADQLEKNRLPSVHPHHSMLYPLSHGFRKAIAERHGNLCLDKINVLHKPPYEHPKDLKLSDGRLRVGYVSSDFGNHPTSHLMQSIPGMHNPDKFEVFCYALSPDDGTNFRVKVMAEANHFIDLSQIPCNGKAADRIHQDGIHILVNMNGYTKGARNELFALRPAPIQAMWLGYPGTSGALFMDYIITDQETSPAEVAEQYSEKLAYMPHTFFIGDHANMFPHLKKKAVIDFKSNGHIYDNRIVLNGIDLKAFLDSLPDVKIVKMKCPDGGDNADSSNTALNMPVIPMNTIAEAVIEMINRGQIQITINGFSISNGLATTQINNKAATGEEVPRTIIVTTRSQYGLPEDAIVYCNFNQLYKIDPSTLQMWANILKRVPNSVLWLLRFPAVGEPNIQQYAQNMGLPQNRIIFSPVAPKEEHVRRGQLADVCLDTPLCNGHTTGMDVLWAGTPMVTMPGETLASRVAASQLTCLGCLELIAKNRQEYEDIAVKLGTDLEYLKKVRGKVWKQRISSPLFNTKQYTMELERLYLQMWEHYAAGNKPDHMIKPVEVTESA

Myc-OGT = biological target: T2, Myc-OGT (UniProt O15294); assay: co-IP; overproduced proteins; cells transfected with Flag-Plk1 and Myc-OGT plasmids, lysates immunoprecipitated with anti-Myc antibodies, immunoblotted with anti-Flag antibodies
T2 sequence: T1 sequence

Recombinant GST-OGT = biological target: T3, Recombinant GST-OGT (UniProt O15294); assay: pull-down; recombinant GST-OGT incubated with extracts of cells transfected with Flag-PLK1; GST pull-down; only the target purified
T3 sequence: T1 sequence

| binding [1] | binding (Myc-OGT) | binding (Recombinant GST-OGT) | Substance |
| --- | --- | --- | --- |
| binds | – | – | polo-like kinase 1 (PLK1), endogenous (from UniProt P53350 1-603) |
| – | binds | binds | Flag-PLK1 (from UniProt P53350 1-603) |
